# Data published in paper PMC3646045.
# A negative result means that nothing was seen under these conditions. The exact form of at least one protein or probe is not confirmed.
# Target: RprY (rRprY, phosphorylated) (Porphyromonas gingivalis ATCC 33277) (UniProt B2RK10)
# Assay: EMSA
# Conditions: 0-35.2 pmol, poly[d(I-C)], specificity by 50-100X unlabeled probe, pH and temperature not given, recombinant protein, residues 1-245, protein details: N-terminal 6xHis (pET28a), label: DIG, probe letters rebuilt from the primers and the genome
sequence,measurement,value
GCTGTGTTTGTTGTTACCAGACAAAATCCAACATCCATGCCAACGCCTAAAGACTGACATTTTGTCCTTTTTTACGTTTTCCCCCTCCTACCGTTTATATCCAAAGCAAGGATTATTCATTATAACACATGGTATAAGAAAGAAAGTAAAGGTTCCATACAGCTTATATGACCTAATCGAATACCTTTGTCCGTGGAAAATCAAAAAATACCCTACTATGAAACTCAGAAC (double strand) [clpB promoter],binding result,binds
CACCTTTTTTCCGACCGACTCCTCCTTTTTTCTGCCAACGAGCAGATGACTACACGTACAATCCTGCCATTCTGACAGCGAATAAGCACATTCCGACAGGAATCAGTCAGGAAATCGGCATTGGTATAGCTATTGATATAAAAATTGCGGAGCTACATAAGAGGCTTCCCATTTGTACAAGCAAACAATCAACTAACAATAACAAACCAAGCAACA (double strand) [groES promoter],binding result,binds
AATAAAAATTTTCTCAGACCACGTTTTCAGAACTGAAATACACCGGATTTTTCAGTACACGTCAATCATTCGGAAGCGAAAAAAGGCAGTCTGAGCGAAAGAATGCGCCAGATTGTCAGTTCCGGACCCTGTGGCACCGGATTTGTCGTTCCTTTCGACGGAATAGAAACAAACAAAACATTAACAGATAATAATACACTATG (double strand) [htpG promoter],binding result,no binding
TCCCATAATTCTATATTCGTTTTTTGTTGTTGTCTCGTTTTCTTTCGTTGTTTATGCCCCATCGAAAGGGTCGTACGCTACAACATAAACAATTTGCGTGCCAAAAATCAAACCGGCTCCGATACTGCCAAAAGGTGACAGAATGTCACTACATGAGGCACACAATAGCTCTTAAACATGACGAATAATGACTCTGTACA (double strand) [dnaK promoter],binding result,binds
